Source: doi:10.1101/2024.12.22.629540
These are yes or no findings as the source states them, for the method shown. For some assays here: In cells and extracts the contact can be indirect. Some results given as binding are weak or reduced against the parent protein; the word gives no strength. For some assays here: Tags and fused reporters may be left off the sequences shown. Values belong to the molecule of their own block, whether it stands above or below them.

Sequences of proteins named here, by UniProt entry; tags and fusion partners are left off.
UniProt P42224: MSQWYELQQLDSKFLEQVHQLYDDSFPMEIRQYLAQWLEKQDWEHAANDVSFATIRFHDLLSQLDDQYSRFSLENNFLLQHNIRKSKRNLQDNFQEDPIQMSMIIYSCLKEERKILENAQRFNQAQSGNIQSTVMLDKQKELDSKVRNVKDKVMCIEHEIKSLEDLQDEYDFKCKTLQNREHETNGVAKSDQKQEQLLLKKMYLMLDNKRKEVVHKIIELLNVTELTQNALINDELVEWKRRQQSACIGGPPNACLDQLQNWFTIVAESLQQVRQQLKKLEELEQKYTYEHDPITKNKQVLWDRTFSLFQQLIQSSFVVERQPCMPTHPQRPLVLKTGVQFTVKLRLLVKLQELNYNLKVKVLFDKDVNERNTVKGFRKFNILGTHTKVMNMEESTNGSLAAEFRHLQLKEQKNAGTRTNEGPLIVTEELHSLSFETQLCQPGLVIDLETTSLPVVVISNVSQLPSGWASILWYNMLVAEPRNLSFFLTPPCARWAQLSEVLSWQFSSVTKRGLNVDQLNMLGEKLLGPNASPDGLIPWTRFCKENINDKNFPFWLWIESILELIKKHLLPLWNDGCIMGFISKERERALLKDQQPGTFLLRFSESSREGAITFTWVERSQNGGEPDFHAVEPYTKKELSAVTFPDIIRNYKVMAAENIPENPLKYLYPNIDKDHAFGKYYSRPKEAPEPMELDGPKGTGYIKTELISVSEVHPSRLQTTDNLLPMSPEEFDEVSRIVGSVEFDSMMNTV
UniProt P70610: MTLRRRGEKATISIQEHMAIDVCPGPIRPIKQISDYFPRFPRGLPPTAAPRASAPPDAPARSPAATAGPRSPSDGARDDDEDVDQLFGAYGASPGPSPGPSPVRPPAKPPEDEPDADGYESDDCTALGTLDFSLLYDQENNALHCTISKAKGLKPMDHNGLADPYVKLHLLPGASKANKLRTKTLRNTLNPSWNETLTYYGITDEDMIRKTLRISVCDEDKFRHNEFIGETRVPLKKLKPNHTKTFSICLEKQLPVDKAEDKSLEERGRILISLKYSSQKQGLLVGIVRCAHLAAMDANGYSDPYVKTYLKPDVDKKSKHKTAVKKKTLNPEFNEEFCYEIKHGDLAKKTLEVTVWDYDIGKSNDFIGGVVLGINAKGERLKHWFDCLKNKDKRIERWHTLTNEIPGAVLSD
UniProt Q14184: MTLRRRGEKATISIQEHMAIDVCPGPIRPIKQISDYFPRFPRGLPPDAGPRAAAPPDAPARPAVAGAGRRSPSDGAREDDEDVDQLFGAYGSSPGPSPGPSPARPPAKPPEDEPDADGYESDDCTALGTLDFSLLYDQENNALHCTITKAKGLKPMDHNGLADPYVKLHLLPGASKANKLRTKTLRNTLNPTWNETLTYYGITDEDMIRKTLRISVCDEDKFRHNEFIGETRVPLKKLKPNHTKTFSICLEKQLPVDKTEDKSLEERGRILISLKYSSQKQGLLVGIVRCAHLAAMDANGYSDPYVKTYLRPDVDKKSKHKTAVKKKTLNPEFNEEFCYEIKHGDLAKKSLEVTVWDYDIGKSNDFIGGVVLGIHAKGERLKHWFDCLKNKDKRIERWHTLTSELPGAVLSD
UniProt Q7TQN4: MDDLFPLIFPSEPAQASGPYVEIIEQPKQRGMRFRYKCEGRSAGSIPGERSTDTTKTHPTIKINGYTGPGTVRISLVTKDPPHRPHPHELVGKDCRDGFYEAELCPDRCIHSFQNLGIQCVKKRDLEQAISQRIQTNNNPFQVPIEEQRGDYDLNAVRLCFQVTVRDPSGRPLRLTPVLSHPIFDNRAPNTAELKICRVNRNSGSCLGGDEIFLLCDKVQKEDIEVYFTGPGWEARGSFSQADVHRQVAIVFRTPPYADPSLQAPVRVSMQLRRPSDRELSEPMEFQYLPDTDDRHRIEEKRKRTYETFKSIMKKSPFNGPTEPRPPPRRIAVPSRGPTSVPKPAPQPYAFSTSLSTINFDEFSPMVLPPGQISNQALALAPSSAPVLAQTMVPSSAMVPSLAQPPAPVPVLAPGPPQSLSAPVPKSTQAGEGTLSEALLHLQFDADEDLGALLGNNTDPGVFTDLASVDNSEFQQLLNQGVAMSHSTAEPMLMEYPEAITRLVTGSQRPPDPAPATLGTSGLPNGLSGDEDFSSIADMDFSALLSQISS

What was measured:
Test in all cases: co-IP
STAT-1-MYCDDK = STAT-1-MYCDDK (UniProt P42224)
IKKβ-MYCDDK = target: T1, IKKβ-MYCDDK (UniProt O14920)
T1 sequence: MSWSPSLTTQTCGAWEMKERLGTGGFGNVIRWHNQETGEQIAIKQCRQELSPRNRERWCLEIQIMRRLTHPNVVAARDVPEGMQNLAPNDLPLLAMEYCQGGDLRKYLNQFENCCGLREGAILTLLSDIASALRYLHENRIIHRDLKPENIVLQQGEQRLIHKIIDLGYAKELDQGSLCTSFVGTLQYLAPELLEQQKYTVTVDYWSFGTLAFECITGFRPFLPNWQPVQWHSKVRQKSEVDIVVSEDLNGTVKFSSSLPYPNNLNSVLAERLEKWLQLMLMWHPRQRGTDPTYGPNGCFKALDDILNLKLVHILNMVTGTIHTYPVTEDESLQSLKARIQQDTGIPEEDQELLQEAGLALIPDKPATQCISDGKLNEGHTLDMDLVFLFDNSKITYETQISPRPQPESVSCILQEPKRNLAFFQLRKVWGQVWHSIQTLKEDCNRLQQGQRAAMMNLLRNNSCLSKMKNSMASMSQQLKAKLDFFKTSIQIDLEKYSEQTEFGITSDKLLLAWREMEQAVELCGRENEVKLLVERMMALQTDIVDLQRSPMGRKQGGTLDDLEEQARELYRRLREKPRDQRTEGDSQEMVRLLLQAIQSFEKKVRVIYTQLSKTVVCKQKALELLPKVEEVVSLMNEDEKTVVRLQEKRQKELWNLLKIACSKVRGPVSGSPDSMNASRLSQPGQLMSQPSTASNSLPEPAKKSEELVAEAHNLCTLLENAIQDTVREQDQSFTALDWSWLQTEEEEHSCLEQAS

[1] = target: rat DOC2b-GFP (double C2 like domain beta) (rat) (UniProt P70610)

Molecule: purified recombinant DOC2b (from UniProt Q14184 1-412)
binding (STAT-1-MYCDDK): binds
binding (IKKβ-MYCDDK): binds

B1: STAT-1 (protein, UniProt Q9QXK0 1-749)
chain: MSQWFELQQLDSKFLEQVHQLYDDSFPMEIRQYLAQWLEKQDWEHAAYDVSFATIRFHDLLSQLDDQYSRFSLENNFLLQHNIRKSKRNLQDNFQEDPVQMSMIIHNCLKEERKILENAQRFNQAQEGNIQNTVMLDKQKELDSKVRNVKDQVMCIEHEIKTLEDLQDEYDFKCKTSQNRESEANGVAKSDQKQEQLLLHKMFLMLDNKRKEIIHKIRELLNSIELTQNTLINDELVEWKRRQQSACIGGPPNACLDQLQSWFTIVAESLQQVRQQLKKLEELEQKFTYEQDPITKNKQVLSDRTFVLFQQLIQSSFVVERQPCMPTHPQRPLVLKTGVQFTVKLRLLVKLQELNYNLKVKVSFDKDVNEKNTVKGFRKFNILGTHTKVMNMEESTNGSLAAEFRHLQLKEQKNAGNRTNEGPLIVTEELHSLSFETQLCQPGLVIDLETTSLPVVVISNVSQLPSGWASILWYNMLVTEPRNLSFFLNPPCAWWSQLSEVLSWQFSSVTKRGLNADQLSMLGEKLLGPNAGPDGLIPWTRFCKENINDKNFSFWPWIDTILELIKKHLLCLWNDGCIMGFISKERERALLKDQQPGTFLLRFSESSREGAITFTWVERSQNGGEPDFHAVEPYTKKELSAVTFPDIIRNYKVMAAENIPENPLKYLYPNIDKDHAFGKYYSRPKEAPEPMELDDPKRTGYIKTELISVSEVHPSRLQSTENLLPMSPEEFDEMSKIVGSEFDSMMSAV
binding [1]: binds

Further lines, results first:

binding [1]: binds
Molecule: NF-κB p65 (from UniProt Q7TQN4 1-550)

binding [1]: binds
B2: IKKβ (protein, UniProt Q9QY78 1-757)
chain: MSWSPSLPTQTCGAWEMKERLGTGGFGNVIRWHNQVTGEQIAIKQCRQELSPKNRDRWCLEIQIMRRLNHPNVVAARDVPEGMQNLAPNDLPLLAMEYCQGGDLRRYLNQFENCCGLREGAILTLLSDIASALRYLHENRIIHRDLKPENIVLQQGEKRLIHKIIDLGYAKELDQGSLCTSFVGTLQYLAPELLEQQKYTVTVDYWSFGTLAFECITGFRPFLPNWQPVQWHSKVRQKSEVDIVVSEDLNGTVKFSSSSPFPNNLNSVLAERLEKWLQLMLTWQPRQRGVDPQYGPNGCFRALDDILNLKLVHILNMVTGTIHTYPVMEDESLQSLKTRIREDTGILETDQELLQEAGLVLLPDKPATQCISDSKTNEGLTLDMDLVFLFDNSKMSYETQITPRPQPESVSCVLQEPKRNLSFFQMRKVWGQVWHSIQTLKEDCNRLQQGQRAAMMNLLRNNSCLSKMKNAMASTAQQLKAKLDFFKTSIQIDLEKYREQTEFGITSDKLLLAWREMEQAVEQCGRENDVKVLVERMMALQTDIVDLQRSPMGRKQGGTLDDLEEQARELYRRLREKPRDQRTEGDSQDMVRLLLQAIQSFEKKVRVIYSQLSKTVVCKQKALELLPKVEEVVRLMNEDEKTVVRLQEKRQKELWNLLKIACSKVRGPVSGSPDSMNVSRLSHPGHLMSQPSSACDSLPDSDKKSEELVAEAHALCSRLESALQDTVKQQDRSFTTLDWSWLQMEDEERCGLEQACD
